The values below come from article PMC7819943, “Rice protein-binding microarrays: a tool to detect cis-acting elements near promoter regions in rice”.

Amino acid sequences for entries named in this document (tags omitted).
UniProt Q0JBA9, entry or part of it: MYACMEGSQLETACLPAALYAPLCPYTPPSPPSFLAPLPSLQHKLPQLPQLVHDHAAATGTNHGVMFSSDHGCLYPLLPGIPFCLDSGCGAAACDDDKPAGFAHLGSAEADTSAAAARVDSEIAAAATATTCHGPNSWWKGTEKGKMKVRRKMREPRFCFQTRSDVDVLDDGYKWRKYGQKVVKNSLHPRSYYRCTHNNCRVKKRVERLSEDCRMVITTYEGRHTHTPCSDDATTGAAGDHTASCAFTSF

The other results are listed elsewhere or left out.

The target of this test is OsWRKY34 (Oryza sativa, UniProt Q0JBA9 1-250). The test can be described thus: protein-binding microarray (RPBM); PBS, 2% BSA, 51.3 ng/ul salmon testes DNA, 50 uM zinc acetate, 200 nM TF, 25 C, 1 h; high values mean tight binding. As to conditions: protein: recombinant; tags: N-terminal polyhistidine and DsRed monomer fusion (pET32a); label: CyDye5-dUTP incorporated in the synthesized complementary strand; 3' TTTTT single-stranded linker to array surface; dsDNA, one strand shown. In outline: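 Using Ni–NTA, transcription factors fused N-terminally to polyhistidine and DsRed were purified after expression in E. coli BL21-CodonPlus. These were incubated at 200 nM with a blocked, double-stranded custom Agilent array for 1 h at 25 °C in a buffer containing 50 µM zinc acetate, and the array was washed. The binding signal is per-feature fluorescence intensity (arbitrary units) on an Axon 4000B scanner.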
With “TGTATGTACGTACGTATGTACTGTATTCATTAGGGTGGGACGGAGTCACCTAGTGCAG”, the binding signal is 9030 fluorescence intensity (a.u.).

For the sequence “CATTGTAGCACTGACGTTTAACACACTTTCAATTCGAATCCGGAGTCACCTAGTGCAG”, the binding signal was 8180 fluorescence intensity (a.u.). In the case of “TTTATTTCATCTCCTACGTTTTCATTTGCCATGTGCGAACCGGAGTCACCTAGTGCAG”, the binding signal is 10200 fluorescence intensity (a.u.). Consider “TTTTGTCCCGGCAATTTTTCTGGGCATCCATGGCCACTGACGGAGTCACCTAGTGCAG”, for which the binding signal was 8540 fluorescence intensity (a.u.). In the case of “GGTGGGTGAACGCGAGCGCTCGTCCATTAGCTTTTTCGAACGGAGTCACCTAGTGCAG”, the binding signal was 8720 fluorescence intensity (a.u.). The result for “CTCCGTCCGCCACCCTTGCTGTGTTTCTTTCAAAAAAAAACGGAGTCACCTAGTGCAG” reads 10800 fluorescence intensity (a.u.).

In the case of “GGCCCAGCCCAGCACGGTCCACTACCTTGTCGCCGCGCGGCGGAGTCACCTAGTGCAG”, the binding signal is 9120 fluorescence intensity (a.u.). As to “CATCGACCGTACTATTCGTGGCACGTCCACCAACAAATATCGGAGTCACCTAGTGCAG”, the binding signal was 8740 fluorescence intensity (a.u.). The result for “GGTAGTGATATTATGATAGAGGATCCTCACCCCTGTCTAACGGAGTCACCTAGTGCAG” reads 8250 fluorescence intensity (a.u.); that for “TTGGTCATATCTCCATCCGGGTTTGATTAAACTATATAAACGGAGTCACCTAGTGCAG”, 8060 fluorescence intensity (a.u.). As for “GGGGCATCTGTTTCTGGTAATGGTGGAACACTATAATATCCGGAGTCACCTAGTGCAG”, the binding signal was 10300 fluorescence intensity (a.u.). For the sequence “ACTCCGTATTATCATGGTACATGCTCTATTCTCTCTGTATCGGAGTCACCTAGTGCAG”, the binding signal is 8270 fluorescence intensity (a.u.). Consider “TTTTATGTATGTCGTTTTCGCGTGGCTGCCCTCAACCAACCGGAGTCACCTAGTGCAG”, for which the binding signal was 8280 fluorescence intensity (a.u.).

Consider “GTCTCTACCTCTCCCTTTCTCTCTCGATCTCTCCAGTCTCCGGAGTCACCTAGTGCAG”, for which the binding signal was 8020 fluorescence intensity (a.u.).

Take “TAACGTTTTATTACTGACATTTTTGTTACTTCTTGATTTACGGAGTCACCTAGTGCAG”: the binding signal is 8840 fluorescence intensity (a.u.).

Turning to “CAACTTAACCAAATTTACTGTACGTTGACCACCAGCTAGCCGGAGTCACCTAGTGCAG”, the binding signal was 9210 fluorescence intensity (a.u.).

On to “TCTTCATATCAAACAGTCCACTACTTGTGCATTCATATACCGGAGTCACCTAGTGCAG”, for which the binding signal is 12500 fluorescence intensity (a.u.). Turning to “TCTTTTGAGCACCCCACTGGCCATGGTCTTTTATCGTCCCCGGAGTCACCTAGTGCAG”, the binding signal is 8490 fluorescence intensity (a.u.). With “ACATGACACATATCCGTCCATGCCCATAGCTGTCAAACGCCGGAGTCACCTAGTGCAG”, the binding signal is 8180 fluorescence intensity (a.u.). As for “TGTTTCCGTCAGAATTTTGGTATGTTATCCGTGTTTGAATCGGAGTCACCTAGTGCAG”, the figure is 9380 fluorescence intensity (a.u.). The result for “ATTACAGCACTCATTCTTTATGGGTATTTGATTCCTATCTCGGAGTCACCTAGTGCAG” reads 8420 fluorescence intensity (a.u.). The result for “CCTGTCTCGCCCGCAGCCACGCCGCCGCCTCGCCCTTTGCCGGAGTCACCTAGTGCAG” reads 9340 fluorescence intensity (a.u.). Consider “AGCGAGTCATGACCTTTTTTTTTTCCCTCCAGCCCTAATCCGGAGTCACCTAGTGCAG”, for which the binding signal is 8230 fluorescence intensity (a.u.).

Consider “CAGATCTTCTGCTACTCACAAGCTATGTTTTGTATACTGACGGAGTCACCTAGTGCAG”, for which the binding signal is 9820 fluorescence intensity (a.u.). On to “GAATACTGGTTTGACTTACTCTTGTTTCGTCGTCACGCGCCGGAGTCACCTAGTGCAG”, for which the binding signal was 11300 fluorescence intensity (a.u.). Consider “GGGATTTTGAATTTTTGGTTGCACTGTTTGACCACTCATCCGGAGTCACCTAGTGCAG”, for which the binding signal was 12100 fluorescence intensity (a.u.).

Turning to “ACGTGTGTTTTCTCCTTTAATTGACTACAAAAATCGATTCCGGAGTCACCTAGTGCAG”, the binding signal was 10500 fluorescence intensity (a.u.).

For the sequence “TGAAATTTCCCAAGTCTTCGGCCACCAATAACACATCGCCCGGAGTCACCTAGTGCAG”, the binding signal was 8040 fluorescence intensity (a.u.). Take “GTTCTTTCCATAGTAGTGTTTTTCCCTTTGTTTTCTCTTTCGGAGTCACCTAGTGCAG”: the binding signal is 8310 fluorescence intensity (a.u.). Turning to “TTCTATAGTGGCCTTTTACATATCCATTTCGGGAATCATCCGGAGTCACCTAGTGCAG”, the binding signal is 11900 fluorescence intensity (a.u.). On to “TCTCCTCCTCCCCACGCGGCCGCCACCACCGCGGCGCCACCGGAGTCACCTAGTGCAG”, for which the binding signal was 8290 fluorescence intensity (a.u.). “CCGGTCCCGTCGTTCTCCACCCGCGGTCCGCCATCGACGCCGGAGTCACCTAGTGCAG”: the binding signal was 9060 fluorescence intensity (a.u.). Consider “CCTGTCCCTTGCACGCTACGAGCTCGATCTAGCAACCACTCGGAGTCACCTAGTGCAG”, for which the binding signal is 9360 fluorescence intensity (a.u.). As to “TTAATCTGTACTATCATTCGCGACAATTTTTTTTTCAAAACGGAGTCACCTAGTGCAG”, the binding signal is 8520 fluorescence intensity (a.u.). The result for “AACCCGGTCTGACTTTTCATCAACTAGACCAAACTCTTTCCGGAGTCACCTAGTGCAG” reads 8680 fluorescence intensity (a.u.). Take “GATATATTTGTTTTGTATTAAAAATGTTGTTATACCTTTTCGGAGTCACCTAGTGCAG”: the binding signal was 8380 fluorescence intensity (a.u.). In the case of “GAAGTGAATAGTAGAGGGTTTTGATGGGTTGGGAAGAGAACGGAGTCACCTAGTGCAG”, the binding signal was 11200 fluorescence intensity (a.u.).

Consider “AAAAGGGGAAAATGTAGGGAGTGGGGAGGGAAAGTGCAAGCGGAGTCACCTAGTGCAG”, for which the binding signal is 10300 fluorescence intensity (a.u.). With “ATTTCTCTTGCCTATGTTTTCATTTTGCAATTATTTTTGTCGGAGTCACCTAGTGCAG”, the binding signal was 10500 fluorescence intensity (a.u.). As to “AATTTTTCATCAAATTGTCATCTCTTTATGGAATAAGTCTCGGAGTCACCTAGTGCAG”, the binding signal is 9850 fluorescence intensity (a.u.).

As for “AGGAGAGAGAGAAGTAGTAGTAGTAGTATCCGAGAAAGCTCGGAGTCACCTAGTGCAG”, the binding signal was 8100 fluorescence intensity (a.u.). The result for “GTTGCCTCGTGTCACCCCGTCCCGTCGCCTTTAACTCCATCGGAGTCACCTAGTGCAG” reads 8280 fluorescence intensity (a.u.).
